Test results reported in the supplement of paper PMC10398353.
Values joined by “and” are separate entries in the source; they are usually repeats but may differ in a detail not shown here. Equal values may be shown once. Where a name gives a salt, the structure may show the parent alone. ± gives the standard deviation of the averaged measurements. The list shows a part of the results. This is a noisy data set.

Each compound was assayed on Salmonella enterica serovar Typhimurium ST313 D23580 (assay: normalized bacterial growth (OD600 20 h minus 0 h, interquartile-mean normalized) (fraction of plate interquartile mean); higher = more bacterial growth (less inhibition)). Details: LPM (pH 5.8, low phosphate, low Mg2+), concentration: 10 µM, temperature: 37 °C.
`Nc1ccccc1C(=O)CC(N)C(=O)O` (stereo not drawn) was tested, and the normalized bacterial growth was 0.98. `CC(N)(Cc1ccc(O)c(O)c1)C(=O)O` (racemic) ["()-3-(3,4-dihydroxyphenyl)-2-methyl-DL-alanine"] showed a normalized bacterial growth of 0.966. `CCN(CC)CCOCCOC(=O)C(CC)(CC)c1ccccc1` gave a normalized bacterial growth of 0.931. For `CCCOc1ccc(C(=O)OCCN(CC)CC)cc1N`, the normalized bacterial growth was 0.745. For `CC1=C(/C=C/C(C)=C\C=C\C(C)=C\C(=O)O)C(C)(C)CCC1`, the normalized bacterial growth was 0.94. Work on `CN(C)CCC(c1ccc(Br)cc1)c1ccccn1` (single isomer, unassigned; (+)) [(+)-Brompheniramine maleate] yielded a normalized bacterial growth of 0.714. For `CC[C@@H](CO)NCCN[C@@H](CC)CO`, the normalized bacterial growth was 1.17. `CC[C@@H](CO)NCCN[C@@H](CC)CO` [Ethambutol dihydrochloride] gave a normalized bacterial growth of 0.846. `CC(=O)OCC(=O)[C@@]1(OC(C)=O)[C@@H](C)C[C@H]2[C@@H]3C[C@H](F)C4=CC(=O)C=C[C@]4(C)[C@@]3(F)[C@@H](O)C[C@@]21C` [Diflorasone Diacetate] gave a normalized bacterial growth of 0.726. In the case of `C=CCOC(Cn1ccnc1)c1ccc(Cl)cc1Cl` (stereo not drawn) [Enilconazole], the normalized bacterial growth is reported as 1.15. Compound `C[C@@H]1O[C@@H](OC[C@H]2O[C@@H](Oc3cc(O)c4c(=O)cc(-c5ccc(O)cc5)oc4c3)[C@H](O)[C@@H](O)[C@@H]2O)[C@H](O)[C@H](O)[C@H]1O` has a normalized bacterial growth of 0.703. With `C#CCn1c(=O)c2c(ncn2C)n(C)c1=O` ["3,7-Dimethyl-1-propargylxanthine"] the normalized bacterial growth was 0.936. In the case of `COc1cc(O)ccc1C(C)=O`, the normalized bacterial growth is reported as 1.02. Work on `N#C/C(=C\c1ccc(O)c(O)c1)C(=O)NCc1ccccc1` [Tyrphostin AG 490] yielded a normalized bacterial growth of 1.16. For `N=C(N)NCCN1CCCCCCC1` [Guanethidine sulfate], the normalized bacterial growth was 1.08. Compound `N=C(N)NCCN1CCCCCCC1` has a normalized bacterial growth of 1.25. For `C#C[C@]1(O)CC[C@H]2[C@@H]3CCC4=CC(=O)CC[C@@H]4[C@H]3CC[C@@]21CC` [Norgestrel-(-)-D], the normalized bacterial growth was 0.857. `CC(CN(C)C)CN1c2ccccc2Sc2ccccc21` (stereo not drawn) showed a normalized bacterial growth of 0.903. `CC(CN(C)C)CN1c2ccccc2Sc2ccccc21` (stereo not drawn) [Trimeprazine tartrate] gave a normalized bacterial growth of 0.722. Work on `CC1(C)[C@@H](OC(=O)CCC(=O)O)CC[C@]2(C)[C@H]3C(=O)C=C4[C@@H]5C[C@@](C)(C(=O)O)CC[C@]5(C)CC[C@@]4(C)[C@]3(C)CC[C@@H]12` [Carbenoxolone disodium salt] yielded a normalized bacterial growth of 0.806. `CC1(C)[C@@H](OC(=O)CCC(=O)O)CC[C@]2(C)[C@H]3C(=O)C=C4[C@@H]5C[C@@](C)(C(=O)O)CC[C@]5(C)CC[C@@]4(C)[C@]3(C)CC[C@@H]12` was tested, and the normalized bacterial growth was 0.733. `CC(C(=O)O)c1ccc(C(=O)c2ccccc2)s1` (stereo not drawn) [Tiaprofenic acid] was tested, and the normalized bacterial growth was 1.27. With `CC(=O)N(CC(O)CN(C(C)=O)c1c(I)c(C(=O)NCC(O)CO)c(I)c(C(=O)NCC(O)CO)c1I)c1c(I)c(C(=O)NCC(O)CO)c(I)c(C(=O)NCC(O)CO)c1I` (stereo not drawn) [Iodixanol] the normalized bacterial growth was 0.662. `c1ccc(CN(CC2=NCCN2)c2ccccc2)cc1` [Antazoline hydrochloride] gave a normalized bacterial growth of 0.872. `c1ccc(CN(CC2=NCCN2)c2ccccc2)cc1` gave a normalized bacterial growth of 1.06. Work on `Nc1ncnc2n[nH]c(Nc3ccc(F)cc3)c12` yielded a normalized bacterial growth of 1.1. Work on `O=C(O)C1=CCCN(CCON=C(c2ccccc2)c2ccccc2)C1` [NO-711 hydrochloride] yielded a normalized bacterial growth of 1.13. For `CCCN(CCc1ccccc1)C1CCc2c(O)cccc2C1` (stereo not drawn) [()-PPHT hydrochloride], the normalized bacterial growth was 1.05. `C/C=C/C/C=C/CCC(=O)[C@H]1O[C@H]1C(N)=O` showed a normalized bacterial growth of 1.24. Compound `CNC(=N)NCCC[C@H](N)C(=O)O` [NG-Monomethyl-L-arginine acetate] has a normalized bacterial growth of 1.02. `CC1=CC(=O)CC(C)(C)C1(O)/C=C/C(C)=C\C(=O)O` (stereo not drawn) showed a normalized bacterial growth of 1.09. For `Cc1cc(O)c2c(O)c3c(O)cccc3cc2c1`, the normalized bacterial growth was 0.669. With `C=CCSCC1Nc2cc(Cl)c(S(N)(=O)=O)cc2S(=O)(=O)N1` (stereo not drawn) the normalized bacterial growth was 1.21. `NC(=O)c1cccc(N)c1` [3-aminobenzamide] gave a normalized bacterial growth of 1.07. `CCCCCCCCCCCCCC[C@@H](O)[C@@H](O)[C@@H](CO)NC(C)=O` was tested, and the normalized bacterial growth was 0.978. In the case of `CC(C)CCCC(C)C1CCC2C3=CCC4CC(O)CCC4(C)C3CCC21C` (stereo not drawn), the normalized bacterial growth is reported as 1.1. Work on `C=CCn1c(=O)c2c(nc(-c3ccc(S(=O)(=O)O)cc3)n2C)n(C)c1=O` ["1-Allyl-3,7-dimethyl-8-p-sulfophenylxanthine"] yielded a normalized bacterial growth of 0.855. `C[C@]12CC[C@@H]3c4ccc(OS(=O)(=O)O)cc4CC[C@H]3[C@@H]1CCC2=O` gave a normalized bacterial growth of 0.998. Compound `C[C@]12CC[C@@H]3c4ccc(OS(=O)(=O)O)cc4CC[C@H]3[C@@H]1CCC2=O` [Estropipate] has a normalized bacterial growth of 1.01. Work on `COc1cccc(OC)c1C(=O)N[C@@H]1C(=O)N2[C@@H]1SC(C)(C)[C@@H]2C(=O)O` yielded a normalized bacterial growth of 0.87. `Cc1ccc(S(=O)(=O)NC(=O)NN2CCCCCC2)cc1` [Tolazamide] showed a normalized bacterial growth of 1.05. Compound `COc1cc2c(CCNC(C)=O)c[nH]c2cc1Cl` [6-Chloromelatonin] has a normalized bacterial growth of 1.24. `CC(C)(C)CC(C)(C)c1ccc(O)c(Cc2ccc(Cl)cc2Cl)c1` gave a normalized bacterial growth of 1.09. In the case of `C[C@H]1[C@H](C)CC[C@]2(C(=O)O)CC[C@]3(C)C(=CC[C@@H]4[C@@]5(C)C[C@@H](O)[C@H](O)[C@@](C)(CO)[C@@H]5CC[C@]43C)[C@H]12`, the normalized bacterial growth is reported as 0.911 ± 0.07. Compound `CCOC(=O)c1ccc(N)cc1` has a normalized bacterial growth of 0.893. Work on `CCN(CC)CCOC(=O)C(c1ccccc1)c1ccccc1` yielded a normalized bacterial growth of 1. In the case of `OC(CCCN1CCCCC1)(c1ccccc1)c1ccccc1` [Diphenidol hydrochloride], the normalized bacterial growth is reported as 0.655. Work on `COc1cc(OC)c2c(=O)c(-c3ccc4c(c3)OCO4)coc2c1` yielded a normalized bacterial growth of 0.944. Compound `CCOc1ccc2nc3cc(N)ccc3c(N)c2c1` has a normalized bacterial growth of 0.971. With `CCN(CC)CCNc1ccc(CO)c2sc3ccccc3c(=O)c12` the normalized bacterial growth was 1.46. `O=c1c(O)cc([C@H]2Oc3cc(O)cc(O)c3C[C@H]2O)cc2c([C@H]3Oc4cc(O)cc(O)c4C[C@H]3O)cc(O)c(O)c12` showed a normalized bacterial growth of 1. `CN(Cc1cnc2nc(N)nc(N)c2n1)c1ccc(C(=O)N[C@@H](CCC(=O)O)C(=O)O)cc1` [Methotrexate hydrate] gave a normalized bacterial growth of 1.16. Work on `O=C(COc1ccc(Cl)cc1)N1CCN(Cc2ccc3c(c2)OCO3)CC1` yielded a normalized bacterial growth of 0.793. For `Cc1ccsc1/C=C/C1=NCCCN1C`, the normalized bacterial growth was 1.13. `Cc1ccsc1/C=C/C1=NCCCN1C` [Morantel tartrate] gave a normalized bacterial growth of 0.684. With `CC(Cc1ccc(O)c(O)c1)(NN)C(=O)O` (stereo not drawn) [S-(-)-Carbidopa] the normalized bacterial growth was 1.16. `CCCCCCCCCC(=O)NC(CN1CCOCC1)[C@H](O)c1ccccc1` (stereo partly drawn) gave a normalized bacterial growth of 0.88. `CN(C)c1ccc(O)c2c1C[C@H]1C[C@H]3[C@H](N(C)C)C(O)=C(C(N)=O)C(=O)[C@@]3(O)C(O)=C1C2=O` [Minocycline hydrochloride] gave a normalized bacterial growth of 0.168 ± 0.19. `CN(C)c1ccc(O)c2c1C[C@H]1C[C@H]3[C@H](N(C)C)C(O)=C(C(N)=O)C(=O)[C@@]3(O)C(O)=C1C2=O` was tested, and the normalized bacterial growth was 0.248 and 0.315. For `CCN1CCc2nc(N)oc2CC1` [B-HT 933 dihydrochloride], the normalized bacterial growth was 0.581. `C[N+](C)(C)CCOC(=O)CCC(=O)OCC[N+](C)(C)C` [Succinylcholine chloride] showed a normalized bacterial growth of 1.08. `COC1(C)CCC2OC2(C)CCC2C1CC2(C)C` (stereo not drawn) was tested, and the normalized bacterial growth was 1.02. Work on `Nc1ccc(CCNc2ncnc3c2ncn3C2OC(CO)C(O)C2O)cc1` (stereo not drawn) [N6-2-(4-Aminophenyl)ethyladenosine] yielded a normalized bacterial growth of 0.973. With `OCC1OC(n2cnc3c(NCCc4ccccc4)ncnc32)C(O)C1O` (stereo not drawn) [N6-2-Phenylethyladenosine] the normalized bacterial growth was 1.11. `OC[C@H]1O[C@@H](n2cnc3c(Nc4ccccc4)ncnc32)[C@H](O)[C@@H]1O` [N6-Phenyladenosine] was tested, and the normalized bacterial growth was 1.23. For `CN(C)[C@@H]1C(O)=C(C(N)=O)C(=O)[C@@]2(O)C(O)=C3C(=O)c4c(O)cccc4[C@@](C)(O)[C@H]3[C@H](O)[C@@H]12`, the normalized bacterial growth was 0.0838. `CN(C)[C@@H]1C(O)=C(C(N)=O)C(=O)[C@@]2(O)C(O)=C3C(=O)c4c(O)cccc4[C@@](C)(O)[C@H]3[C@H](O)[C@@H]12` [Oxytetracycline dihydrate] gave a normalized bacterial growth of 0.923. Work on `OC(CN1CCN(c2cccc(Cl)c2)CC1)C(c1ccccc1)c1ccccc1` (stereo not drawn) yielded a normalized bacterial growth of 0.698. Work on `Nc1nc(OCc2ccccc2)c2nc[nH]c2n1` [O6-benzylguanine] yielded a normalized bacterial growth of 0.915. `CC1=C(/C=C/C(C)=C/C=C/C(C)=C\C(=O)O)C(C)(C)CCC1` gave a normalized bacterial growth of 0.897. Work on `CC/C(=C(/CC)c1ccc(O)cc1)c1ccc(O)cc1` yielded a normalized bacterial growth of 1.29. In the case of `CC(C)(Sc1ccc(CCN(CCCCC2CCCCC2)C(=O)NC2CCCCC2)cc1)C(=O)O`, the normalized bacterial growth is reported as 1.24. For `NC1C=CC=C(C(=O)O)C1` (stereo not drawn) [Gabaculine hydrochloride], the normalized bacterial growth was 0.986. Work on `CSc1ccc2c(c1)N(CCC1CCCCN1C)c1ccccc1S2` (stereo not drawn) [Thioridazine hydrochloride] yielded a normalized bacterial growth of 1.15. Work on `NC(N)=Nc1nc(CSCC/C(N)=N/S(N)(=O)=O)cs1` yielded a normalized bacterial growth of 0.617. `NC(N)=Nc1nc(CSCC/C(N)=N/S(N)(=O)=O)cs1` [Famotidine] gave a normalized bacterial growth of 1.03 ± 0.065. Work on `Cc1cc(-c2ccccc2)nnc1NCCN1CCOCC1` yielded a normalized bacterial growth of 1. `COc1ccc(-c2cc(=O)c3c(OC(C)=O)cc(OC(C)=O)cc3o2)cc1` showed a normalized bacterial growth of 1.21. Work on `O=c1cc(-c2ccc(O)cc2)oc2c([C@@H]3O[C@H](CO)[C@@H](O)[C@H](O)[C@H]3O)c(O)cc(O)c12` yielded a normalized bacterial growth of 1.11. `O=c1cc(-c2ccc(O)cc2)oc2c([C@@H]3O[C@H](CO)[C@@H](O)[C@H](O)[C@H]3O)c(O)cc(O)c12` [Vitexin] showed a normalized bacterial growth of 1.2. `CC[N+](CC)(CC)CC(=O)Nc1c(C)cccc1C` [Lidocaine N-ethyl bromide quaternary salt] showed a normalized bacterial growth of 0.752. `COc1cc(-c2ccc(=O)[nH]n2)ccc1OC(F)F` [Zardaverine] was tested, and the normalized bacterial growth was 0.917. Compound `COC(=O)[C@@H]1OC(=O)[C@H]2O[C@@]23[C@@]1(C)CCC1[C@@]2(C)CCC(=O)C(C)(C)C2C[C@@H](OC(C)=O)[C@]13C` (stereo partly drawn) has a normalized bacterial growth of 0.992.
